From patent publication US5912330A, “Crystalline maltosyl glucoside, and its production and use” (Kabushiki Kaisha Hayashibara Seibutsu Kagaku Kenkyujo, priority 1994, dated 1999)

Experiment: Sweetness versus sucrose

For `OC[C@H]1O[C@H](O[C@H]2O[C@H](CO)[C@@H](O[C@H]3O[C@H](CO)[C@@H](O)[C@H](O)[C@H]3O)[C@H](O)[C@H]2O)[C@H](O)[C@@H](O)[C@@H]1O` [maltosyl glucoside, O-α-D-glucopyranosyl-(→4)-α-D-glucopyranosyl α-D-glucopyranoside], the “equivalent aqueous sucrose solution concentration” value (25% aqueous solution of maltosyl glucoside) was 10% and the “sweetening power of sucrose” value (as anhydride, relative to sucrose) was “about 40%”.
